Experimental data from PMC7241524.
Results are given in words; binding and its absence hold for the method and conditions named. In cells and extracts the contact can be indirect.

By UniProt entry, the sequences of proteins in these tests, tags left out. Residues count along the entry.
UniProt P46531, residues 19-2555: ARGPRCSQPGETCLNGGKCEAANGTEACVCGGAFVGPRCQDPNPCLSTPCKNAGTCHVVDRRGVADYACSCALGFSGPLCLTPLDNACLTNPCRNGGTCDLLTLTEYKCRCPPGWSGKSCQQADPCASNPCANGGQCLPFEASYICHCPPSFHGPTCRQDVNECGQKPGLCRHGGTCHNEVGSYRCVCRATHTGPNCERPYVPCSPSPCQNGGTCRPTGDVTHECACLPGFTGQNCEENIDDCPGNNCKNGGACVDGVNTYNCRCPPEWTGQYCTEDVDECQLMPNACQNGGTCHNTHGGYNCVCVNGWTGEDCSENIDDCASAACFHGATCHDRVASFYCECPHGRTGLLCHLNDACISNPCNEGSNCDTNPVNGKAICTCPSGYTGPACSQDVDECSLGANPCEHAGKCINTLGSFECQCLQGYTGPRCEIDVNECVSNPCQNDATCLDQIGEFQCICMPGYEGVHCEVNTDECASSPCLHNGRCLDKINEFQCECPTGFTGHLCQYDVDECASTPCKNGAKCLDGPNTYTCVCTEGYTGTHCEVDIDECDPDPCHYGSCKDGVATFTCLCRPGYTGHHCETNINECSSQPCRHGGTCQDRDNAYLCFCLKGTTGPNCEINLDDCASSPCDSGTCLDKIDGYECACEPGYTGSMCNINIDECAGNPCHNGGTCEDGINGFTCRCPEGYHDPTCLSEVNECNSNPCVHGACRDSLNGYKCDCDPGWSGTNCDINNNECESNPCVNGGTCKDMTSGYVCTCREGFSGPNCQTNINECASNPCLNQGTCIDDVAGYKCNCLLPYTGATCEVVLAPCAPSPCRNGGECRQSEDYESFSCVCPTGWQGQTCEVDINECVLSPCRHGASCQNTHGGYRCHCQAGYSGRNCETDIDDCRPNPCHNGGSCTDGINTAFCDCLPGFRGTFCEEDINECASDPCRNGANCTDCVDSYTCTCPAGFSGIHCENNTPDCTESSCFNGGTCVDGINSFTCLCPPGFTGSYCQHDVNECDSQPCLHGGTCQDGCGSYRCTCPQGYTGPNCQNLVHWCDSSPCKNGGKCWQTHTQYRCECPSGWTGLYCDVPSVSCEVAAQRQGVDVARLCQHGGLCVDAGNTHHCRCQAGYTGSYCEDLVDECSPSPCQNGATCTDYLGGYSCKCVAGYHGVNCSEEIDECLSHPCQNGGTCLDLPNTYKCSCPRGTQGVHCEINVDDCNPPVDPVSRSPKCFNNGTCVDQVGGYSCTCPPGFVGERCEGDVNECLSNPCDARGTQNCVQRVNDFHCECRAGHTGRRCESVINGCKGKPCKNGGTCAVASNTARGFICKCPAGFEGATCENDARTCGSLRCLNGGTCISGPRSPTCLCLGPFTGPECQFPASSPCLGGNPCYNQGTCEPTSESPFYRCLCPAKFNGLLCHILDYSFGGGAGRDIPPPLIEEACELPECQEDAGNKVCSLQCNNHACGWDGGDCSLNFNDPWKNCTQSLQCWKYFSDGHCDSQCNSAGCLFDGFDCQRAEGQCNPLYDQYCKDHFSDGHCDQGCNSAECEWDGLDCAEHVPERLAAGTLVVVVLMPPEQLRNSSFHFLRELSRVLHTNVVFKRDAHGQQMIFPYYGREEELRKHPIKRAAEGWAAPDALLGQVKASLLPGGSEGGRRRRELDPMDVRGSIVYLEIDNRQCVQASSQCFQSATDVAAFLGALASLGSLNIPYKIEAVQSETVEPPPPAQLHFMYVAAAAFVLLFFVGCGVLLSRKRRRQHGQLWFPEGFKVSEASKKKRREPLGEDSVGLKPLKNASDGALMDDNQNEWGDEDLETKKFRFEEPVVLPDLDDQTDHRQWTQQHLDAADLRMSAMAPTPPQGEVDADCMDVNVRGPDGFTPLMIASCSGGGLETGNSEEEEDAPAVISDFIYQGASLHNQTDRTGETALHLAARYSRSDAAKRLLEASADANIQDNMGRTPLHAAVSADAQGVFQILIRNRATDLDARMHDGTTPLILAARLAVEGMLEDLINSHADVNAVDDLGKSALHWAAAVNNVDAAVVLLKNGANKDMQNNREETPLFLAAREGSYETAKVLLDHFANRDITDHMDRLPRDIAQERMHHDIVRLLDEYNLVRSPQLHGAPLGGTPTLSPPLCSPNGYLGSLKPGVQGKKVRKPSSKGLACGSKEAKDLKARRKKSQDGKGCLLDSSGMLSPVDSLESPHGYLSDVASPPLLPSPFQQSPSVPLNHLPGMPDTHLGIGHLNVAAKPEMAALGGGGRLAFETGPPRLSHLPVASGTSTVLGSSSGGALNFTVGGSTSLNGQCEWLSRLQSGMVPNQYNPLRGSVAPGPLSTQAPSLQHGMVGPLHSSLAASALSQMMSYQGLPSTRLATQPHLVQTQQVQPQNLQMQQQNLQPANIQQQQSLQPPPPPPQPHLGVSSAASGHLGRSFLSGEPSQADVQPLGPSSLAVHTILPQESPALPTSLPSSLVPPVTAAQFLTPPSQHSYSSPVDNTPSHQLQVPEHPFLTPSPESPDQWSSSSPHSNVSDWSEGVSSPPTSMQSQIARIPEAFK

Molecular target: T1, IL-22R1 (human (endogenous in HK-2)) (UniProt Q8N6P7)
T1 sequence: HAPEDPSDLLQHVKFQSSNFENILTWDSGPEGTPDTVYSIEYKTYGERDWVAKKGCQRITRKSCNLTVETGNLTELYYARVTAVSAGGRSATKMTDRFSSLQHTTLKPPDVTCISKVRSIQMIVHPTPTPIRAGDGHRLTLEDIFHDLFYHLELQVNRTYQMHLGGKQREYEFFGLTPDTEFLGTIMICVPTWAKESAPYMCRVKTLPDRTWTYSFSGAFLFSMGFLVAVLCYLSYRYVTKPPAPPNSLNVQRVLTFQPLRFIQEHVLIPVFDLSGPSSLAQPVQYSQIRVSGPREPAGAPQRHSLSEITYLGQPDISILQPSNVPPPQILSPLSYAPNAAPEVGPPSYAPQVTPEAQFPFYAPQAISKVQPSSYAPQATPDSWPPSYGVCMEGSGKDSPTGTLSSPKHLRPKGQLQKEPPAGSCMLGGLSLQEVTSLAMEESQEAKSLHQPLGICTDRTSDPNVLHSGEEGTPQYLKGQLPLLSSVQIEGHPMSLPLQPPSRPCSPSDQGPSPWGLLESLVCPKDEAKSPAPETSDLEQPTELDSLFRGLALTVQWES
Test: co-IP; HK-2 cells lysed with 0.5% NP40 lysis buffer; lysates immunoprecipitated with anti-IL-22R1 antibody, blotted with anti-Notch1 or anti-IL-22R1 antibody

Notch1 (from UniProt P46531 19-2555) (receptor)
binding: no binding
